About 6,100 (1.1%) of roughly 580,000 compounds were called active. The shares of active, inactive and inconclusive entries below differ from those in the screen. Calls come from the whole dose curve; as a rule, active = well fitted inhibition curve with a large enough effect; inconclusive = small, poorly fitted or top-dose-only effect, or another doubt; inactive = no such curve, though single readings can be large or run the other way. Potencies beside an inconclusive call are fits to weak or partial responses and may not hold up.
Each molecule was assayed against Polyunsaturated fatty acid lipoxygenase ALOX12 (Homo sapiens) (UniProt P18054) (assay: Primary qHTS assay for inhibitors of human arachidonate 12S-lipoxygenase (ALOX12): Round 2). Conditions: purified 12hLO, xylenol orange hydroperoxide absorbance; activity change, negative = inhibition: at 108 µM (top of the series) unless noted.
Method in brief: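 Purified human 12hLO (150 nM final) in 25 mM Hepes, 0.01% Triton X-100, pH 7.0 was preincubated 15 min at room temperature with compound. Then 40 uM arachidonic acid was added, 30 min. Hydroperoxide was read by Fe-XO absorbance ratio 573/405 nm.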
% is set by controls: 0 for no effect and ±100 for the full control effect; potency is the fitted concentration of half-maximal effect.

Amino acid sequences for entries named in this document (tags omitted). A change or cut given only in a name is not applied to a line headed by its entry.
UniProt P18054: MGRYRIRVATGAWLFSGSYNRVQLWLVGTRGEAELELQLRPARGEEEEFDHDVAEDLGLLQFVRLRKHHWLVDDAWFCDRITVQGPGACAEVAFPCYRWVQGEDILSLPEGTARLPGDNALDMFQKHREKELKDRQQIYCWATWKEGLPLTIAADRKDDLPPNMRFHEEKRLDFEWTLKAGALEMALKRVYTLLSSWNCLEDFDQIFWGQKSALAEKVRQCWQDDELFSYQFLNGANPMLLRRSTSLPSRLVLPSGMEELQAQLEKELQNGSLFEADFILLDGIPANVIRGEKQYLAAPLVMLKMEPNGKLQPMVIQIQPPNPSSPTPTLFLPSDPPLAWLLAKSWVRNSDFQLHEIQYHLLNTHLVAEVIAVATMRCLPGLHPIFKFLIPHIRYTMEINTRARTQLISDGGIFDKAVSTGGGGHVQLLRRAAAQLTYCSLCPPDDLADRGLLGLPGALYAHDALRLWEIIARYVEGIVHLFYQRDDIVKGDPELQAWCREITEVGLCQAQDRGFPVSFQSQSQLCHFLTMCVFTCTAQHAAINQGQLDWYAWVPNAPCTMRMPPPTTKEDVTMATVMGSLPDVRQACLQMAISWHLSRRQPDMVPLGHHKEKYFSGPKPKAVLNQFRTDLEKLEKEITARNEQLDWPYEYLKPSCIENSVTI

| SMILES | Potency | activity change, negative = inhibition |
| --- | --- | --- |
| Cc1cccc(OCCn2ccnc2)c1C | inconclusive: 35.5 µM [inhibitor, partial curve, poor fit] |  |
| O=C(c1ccc(F)cc1)N1Cc2[nH]cnc2C[C@H]1c1nc(-c2ccc3c(c2)OCO3)no1 | inconclusive: 35.5 µM [inhibitor, full curve, poor fit] |  |
| CC1=C/C(=N/NC(=O)c2cc(C)oc2C)CC1 | inactive |  |
| CCCc1nc(C)cc(N2CCC(NCCc3ccc(Cl)cc3)CC2)n1 | active: 8.91 µM |  |
| CCC(C)Sc1cc(-c2nc3ccc(C)cn3c2NCc2ccccc2)ccc1OC (stereo not drawn) | inactive |  |
| CC1=C[C@@H](CN2CCC(C(N)=O)CC2)[C@H](C(C)C)C[C@H]1Cc1nnc(-c2ccc(C)cc2)o1 | inactive |  |
| Oc1ccc2ccccc2c1-c1sc(Nc2ccccc2)n[n+]1-c1ccc(F)cc1 | inconclusive: 35.5 µM [inhibitor, partial curve, poor fit] |  |
| COc1ccc(-c2csc(NC(=O)C3CCN(c4ncnc5sc(C)c(C)c45)CC3)n2)cc1OC | inactive |  |
| O=C(NCc1ccco1)c1scc2c1OCCO2 | inactive |  |
| CC(=O)Nc1ccc(NC(C)=O)s1 | inconclusive: 22.4 µM [inhibitor, partial curve, poor fit] |  |
| Cc1nnc(NC(=O)NCC(C)(C)N2CCCC(C)C2)s1 (stereo not drawn) | inactive |  |
| COc1ccc(C(=O)CCC(=O)N2CCN(c3cc(C)ccc3C)CC2)cc1 | inactive |  |
| Cc1occc1C(=O)N/N=C/C1=C(N2CCOCC2)C(=C\c2ccc(Cl)cc2)/CC1 | inactive |  |
| COc1ccc(OC)c(NC(=O)Nc2nnc(N(C)C3CCCCC3)s2)c1 | inactive |  |
| CCC(C)NC(=O)Cc1csc(NC(=O)Nc2ccccc2OC)n1 (stereo not drawn) | inconclusive: 112 µM [inhibitor, partial curve, poor fit] |  |
| Cc1ccc(F)cc1CN1CCOc2cc([S+](=O)([O-])N(C)C)ccc2C1 | inactive |  |
| CCC(CC)C(=O)N(C)c1c(C)nc2c(OCc3cccc(OC)c3)cccn12 | inactive |  |
| COc1ccccc1COCC(O)CN1CCCCC1CO (stereo not drawn) | inconclusive: 3.55 µM [inhibitor, full curve, poor fit] |  |
| O=C1C2C3C=CC(C3)C2C(=O)N1c1cccnc1 (stereo not drawn) | inactive |  |
| COc1cc(/C=C2\C(=O)NN(c3ccccc3)C2=O)ccc1OCC(N)=O | inconclusive: 44.7 µM [inhibitor, partial curve, poor fit] |  |
| COCCOCC(=O)N1CCCCCC1c1nnc(-c2ccccc2)o1 (stereo not drawn) | inactive |  |
| C[C@@H](c1ccccc1)N1C[C@H](COCc2ccccc2)Oc2cc(N3CC[C@H](O)C3)ccc2S1(=O)=O | inconclusive: 44.7 µM [inhibitor, partial curve, poor fit] |  |
| Cc1ccc(Cn2ncc3c(N4CCN(C5CCCC5)CC4)ncnc32)cc1 | inactive |  |

In another format: three of the compounds above
SMILES | Potency | activity change, negative = inhibition
Cc1cccc(OCCn2ccnc2)c1C | inconclusive: 35.5 µM [inhibitor, partial curve, poor fit] | 
O=C(c1ccc(F)cc1)N1Cc2[nH]cnc2C[C@H]1c1nc(-c2ccc3c(c2)OCO3)no1 | inconclusive: 35.5 µM [inhibitor, full curve, poor fit] | 
CC1=C/C(=N/NC(=O)c2cc(C)oc2C)CC1 | inactive | 

(cont.)

| SMILES | Potency | activity change, negative = inhibition |
| --- | --- | --- |
| Cn1cc(Br)c(NS(=O)(=O)c2ccc(Cl)s2)n1 | inconclusive: 112 µM [inhibitor, single point] |  |
| CN1c2c(nc(N)[nH]c2=O)NCC1CNc1ccc(C(=O)NC(CCC(=O)O)C(=O)O)cc1 (stereo not drawn) | inconclusive: 39.8 µM [inhibitor, partial curve, poor fit] |  |
| Cc1[nH]c2ccccc2c1SCCNC(=O)c1ccccc1 | inconclusive: 89.1 µM [inhibitor, single point] |  |
| Cc1ccc(Sc2ccc(CN3CCCC3)cc2[N+](=O)[O-])cc1 | inconclusive: 17.8 µM [inhibitor, full curve, poor fit] |  |
| CC(=O)c1ccc(NC(=O)c2ccc(Cl)cc2N2CCCC2=O)cc1 | inactive |  |
| CCCN1C(SCC(=O)Nc2ccc(CC)cc2)=NS(=O)(=O)c2ccccc21 | inactive |  |
| Cc1ccc(CCCOC(=O)C[N+]2(C)CCCCC2)cc1 | inconclusive: 56.2 µM [inhibitor, partial curve, poor fit] |  |
| CS(=O)(=O)Nc1ccc(C2=NN(C(=O)C3CCCCC3)C(c3cccs3)C2)cc1 (stereo not drawn) | inconclusive: 56.2 µM [inhibitor, partial curve, poor fit] |  |
| Cc1noc(C)c1C(=O)N1CCC2(CC1)CN(C(=O)c1ccc(Cl)cc1)CCO2 |  | inactive: 4.94% [at 6.33 µM] |
| Cc1cccc[n+]1CC(=O)Nc1ccc([N+](=O)[O-])cc1 | inactive |  |
| Nc1nccnc1C(=O)NCc1cccc(Cl)c1 | inactive |  |
| COc1cc(NS(C)(=O)=O)ccc1Nc1c2ccccc2nc2ccccc12 | inconclusive: 50.1 µM [inhibitor, partial curve, poor fit] |  |
| COc1ccc(OCCCN(C)Cc2ccccc2)cc1 | inconclusive: 0.708 µM [inhibitor, full curve, poor fit] |  |
| COc1ccc(-c2ccc3c(c2)C2CC3CCN2C(=O)OCc2ccccc2)cc1 (stereo not drawn) | inconclusive: 50.1 µM [inhibitor, partial curve, poor fit] |  |
| S=C(NCc1ccc(Cl)cc1)Nc1ccc(Cl)cc1Cl | inactive |  |
| CCO[C@H]1OC(C(=O)N2CCOCC2)=C[C@@H](c2ccc(C(F)(F)F)cc2)[C@@H]1CCCO | inactive |  |
| CC(=O)N1CCC(N2C[C@@H]3OCC(=O)N(CC4CC4)[C@@H]3C2)CC1 | inactive |  |
| Cc1cccc(NC(=O)N2CCC(CN3CCc4ccccc4C3)CC2)c1C | inconclusive: 56.2 µM [inhibitor, partial curve, poor fit] |  |
| CN1C(=O)C(C)(C)c2cc(S(=O)(=O)NCc3ccc(C(=O)Nc4ccc(Cl)cc4)cc3)ccc21 | inactive |  |
| Nc1ccc(-c2ccn[nH]2)cc1 | inconclusive: 7.08 µM [inhibitor, full curve, poor fit] |  |
| COc1ccc(C(CC(=O)c2ccc(C)cc2)Sc2ccccc2N)cc1 (stereo not drawn) | active: 50.1 µM |  |
| O=c1[nH]c(=S)[nH]c2c1C(c1cc([N+](=O)[O-])c(N3CCOCC3)cc1N1CCOCC1)O2 (stereo not drawn) | inconclusive: 50.1 µM [inhibitor, partial curve] |  |
| CS(=O)(=O)Nc1cccc(-c2nccc(NCc3cccs3)n2)c1 | inconclusive: 39.8 µM [inhibitor, partial curve, poor fit] |  |

An excerpt of these results, with tabs.
SMILES	Potency	activity change, negative = inhibition
Nc1ccc(-c2ccn[nH]2)cc1	inconclusive: 7.08 µM [inhibitor, full curve, poor fit]	
COc1ccc(C(CC(=O)c2ccc(C)cc2)Sc2ccccc2N)cc1 (stereo not drawn)	active: 50.1 µM	

The listing continues:

| SMILES | Potency | activity change, negative = inhibition |
| --- | --- | --- |
| COc1cccc(CN2CCCCC23Cc2ccccc2CNC3=O)c1 (stereo not drawn) | inconclusive: 10 µM [inhibitor, full curve, poor fit] |  |
| O=C(Cn1cc(COc2cc(F)cc(F)c2)nn1)c1ccc(O)cc1 | inconclusive: 100 µM [inhibitor, single point] |  |
| Cn1c(=O)c2c(ncn2CC(=O)N2CC(C(=O)N3CCOCC3)Oc3ccccc32)n(C)c1=O (stereo not drawn) | inconclusive: 50.1 µM [inhibitor, partial curve, poor fit] |  |
| O=C(COc1ccc2c(c1)CCC2)N1CCc2ccccc21 | inactive |  |
| CCOc1ccc(Nc2nc3ccccc3nc2NS(=O)(=O)c2cccs2)cc1 | inconclusive: 0.355 µM [inhibitor, full curve, poor fit] |  |
| COc1ccc(CNC(=O)C[C@@H]2CCNC[C@@H]2Cc2cc(C(C)(C)C)on2)cc1 | inactive |  |
| COc1ccc(CNC(=O)Cn2c(SCC(=O)Nc3ccc(C)c(C)c3)nc3ccccc32)cc1 | inconclusive: 0.178 µM [inhibitor, full curve, poor fit] |  |
| O=S(=O)(c1ccc2c(c1)CCN2)N1CCCCC1 | inconclusive: 35.5 µM [inhibitor, single point] |  |
| COC(=O)c1sccc1NC(=O)c1cc(-c2ccc(C)cc2)nc2ccccc12 | inconclusive: 79.4 µM [inhibitor, partial curve, poor fit] |  |
| COc1ccc(-c2ccc(CN3C(CC(C)C)C(=O)N(Cc4cn(Cc5ccco5)nn4)CCS3(=O)=O)cc2)cc1OC (stereo not drawn) | inconclusive: 35.5 µM [inhibitor, partial curve, poor fit] |  |
| COc1ccc(S(=O)(=O)NCCc2csc(-c3ccc(F)cc3)n2)cc1 | inactive |  |
| O=C(CSC1=Nc2ccccc2C2=NC(Cc3ccccc3)C(=O)N12)Nc1ccccc1F (stereo not drawn) | inconclusive: 44.7 µM [inhibitor, partial curve, poor fit] |  |
| O=C1c2c(O)cc(O)cc2O[C@@]12c1c(cc(O)c3c1O[C@H](c1ccc(O)cc1)[C@@H](O)C3)O[C@@H]2c1ccc(O)cc1 | inconclusive: 70.8 µM [inhibitor, partial curve, poor fit] |  |
| Cc1ccc(C(=O)NCc2cccnc2)cc1S(=O)(=O)Nc1ccccc1 | inconclusive: 1.78 µM [inhibitor, full curve, poor fit] |  |
| Cc1nn(-c2ccccc2)c(Cl)c1C(=O)OC(C)C(=O)Nc1ccc2c(c1)OCO2 (stereo not drawn) | inconclusive: 63.1 µM [inhibitor, partial curve, poor fit] |  |
| CCOC(=O)c1ccc(-c2ccc(/C=C(/C#N)C(=O)N3CCOCC3)o2)cc1 | inconclusive: 89.1 µM [inhibitor, single point] |  |
| CC(C)(C)NCC(O)COc1c(F)cc(Br)cc1F (stereo not drawn) | inactive |  |
| CC(SCC(=O)Nc1ccc(S(=O)(=O)N2CCCCC2)cc1)C(=O)O (stereo not drawn) | inconclusive: 112 µM [inhibitor, single point] |  |
| COCCNc1nc(NCCOc2ccccc2Cl)c2sccc2n1 | inconclusive: 44.7 µM [inhibitor, partial curve] |  |
| O=C(/C=C/c1ccco1)Nc1ccc(Cl)c(S(=O)(=O)N2CCOCC2)c1 | inconclusive: 56.2 µM [inhibitor, partial curve, poor fit] |  |
| O=C(c1ccco1)N1CCN(C(c2ccc(F)cc2)c2nnnn2Cc2cccs2)CC1 (stereo not drawn) | inconclusive: 35.5 µM [inhibitor, full curve, poor fit] |  |
| Cc1ccc(C(=O)N2CCC3(CC2)N(C)C(=O)CS3(=O)=O)cc1 | inactive |  |

From PubChem BioAssay AID1671190 (National Center for Advancing Translational Sciences (NCATS), 2021)
